Source: PubChem BioAssay AID504834 (National Center for Advancing Translational Sciences (NCATS), 2011)
Hit rate of the full screen: of about 320,000 compounds, about 22,000 (6.9%) were called active. This list was built around the results that the source calls inconclusive (neither active nor inactive); the mix of calls is not that of the screen. The call rests on the fitted dose curve; in most records, active means well fitted inhibition curve with a large enough effect; inconclusive means small, poorly fitted or top-dose-only effect, or another doubt; inactive means no such curve, though single readings can be large or run the other way. A potency beside an inconclusive call is a rough fit, not a confirmed value.

Test: Primary qHTS for delayed death inhibitors of the malarial parasite plastid, 96 hour incubation
Conditions: P. falciparum luciferase reporter growth; series mostly up to 28.7 µM
How it was run: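 P. falciparum expressing integrated firefly luciferase, in erythrocytes at 2% hematocrit, 0.05% parasitemia, incubated with compounds 96 h at 37 C, 5% CO2. Growth inhibition read as loss of luminescence; two-generation exposure targets delayed-death apicoplast inhibitors.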
On the % scale 0 is the no-effect control and ±100 the full control effect; potency means the concentration at half of the fitted maximal effect.

Question: Which Potency does the source give for CC1CCCCC1NC(=O)NC(=O)COC(=O)C1=NN(c2ccccc2)C(=O)CC1 (configuration not stated) here?
Answer: inconclusive: 18.5 µM [inhibitor, single point]

Question: Which Potency does the source give for Cc1ccc(NCC(=O)N=Nc2c(O)[nH]c3ccc([N+](=O)[O-])cc23)cc1 here?
Answer: inconclusive: 18.5 µM [inhibitor, single point]

Question: Which Potency does the source give for COc1ccc(NC(=O)COC(=O)c2ccco2)c([N+](=O)[O-])c1 here?
Answer: inconclusive: 0.329 µM [inhibitor, partial curve, poor fit]

Question: With CCOc1cc(N2CCOCC2)c(OCC)cc1NC(=O)[C@H](C)NC(=O)c1ccco1 as the molecule, how does the Potency read?
Answer: inconclusive: 10.4 µM [inhibitor, single point]

Question: Which Potency does the source give for C/C(N)=C(/C#N)C(=O)CSc1nnc(C)n1-c1ccccc1 here?
Answer: inconclusive: 5.22 µM [inhibitor, partial curve]

Question: Which Potency does the source give for Cc1ccc(S(=O)(=O)c2nc(-c3ccco3)oc2NCC2CCCO2)cc1 (configuration not stated) here?
Answer: inconclusive: 6.57 µM [inhibitor, partial curve]

Question: For Cc1cc(CNC(=O)C2CCC(=O)N(CCc3ccc(Cl)cc3)C2)no1 (configuration not stated), which Potency is on record?
Answer: inconclusive: 1.85 µM [inhibitor, partial curve, poor fit]

Question: With COc1ccc(Oc2nc3ccccc3n(C)c2=O)cc1 as the molecule, how does the Potency read?
Answer: inactive

Question: Which Potency does the source give for Cc1cc(N2CCCC(C(=O)Nc3cccc4ccccc34)C2)n2ncnc2n1 (configuration not stated) here?
Answer: inactive

Question: For Cc1cc2c(cc(C(=O)OC(C(=O)NCC3CCCO3)C(C)C)n2C)o1 (configuration not stated), which Potency is on record?
Answer: inconclusive: 20.8 µM [inhibitor, single point]

Question: Which Potency does the source give for CCOC(=O)C1=C(C)NC(C)=C(C(=O)OCC)C1c1ccco1 here?
Answer: inconclusive: 11.7 µM [inhibitor, single point]

Question: With CC1CCN(C(C)C(=O)Nc2cc(S(=O)(=O)N3CCCCC3)ccc2Cl)CC1 (configuration not stated) as the molecule, how does the Potency read?
Answer: active: 9.28 µM

Question: For O=c1c2ccccc2sc2ccc(Cl)cc12, which Potency is on record?
Answer: inactive

Question: With Cc1cc(C)cc(NC(=O)C(c2ccccc2)N2CCCC2)c1 (configuration not stated) as the molecule, how does the Potency read?
Answer: inactive

Question: With COc1cc(C(C(=O)NC2CCCC2)N(Cc2ccccc2)C(=O)c2snc(C(N)=O)c2N)ccc1O (configuration not stated) as the molecule, how does the Potency read?
Answer: inactive

Question: Which Potency does the source give for CCOc1ccc(Cc2nccc3cc(OCC)c(OCC)cc23)cc1OCC here?
Answer: active: 4.05 µM

Question: With O=C(CNC1CCCCC1)Nc1ccc([N+](=O)[O-])cc1C(=O)Nc1ccccc1F as the molecule, how does the Potency read?
Answer: inconclusive: 16.5 µM [inhibitor, single point]

Question: For COc1ccccc1NS(=O)(=O)c1cccc(NC(=O)C2CC2)c1, which Potency is on record?
Answer: inconclusive: 18.5 µM [inhibitor, single point]

Question: Which Potency does the source give for CCCc1nnc(SCC(=O)N2CCCC2)n1Cc1ccco1 here?
Answer: inconclusive: 11.7 µM [inhibitor, partial curve, poor fit]

Question: Which Potency does the source give for CCOC(=O)C1=C(C)OC(N)=C(C#N)C1c1cc(F)ccc1F (configuration not stated) here?
Answer: inconclusive: 18.5 µM [inhibitor, single point]

Question: For CNC(=O)c1c(NC(=O)c2ccco2)sc2c1CCC2, which Potency is on record?
Answer: inactive

Question: For O=C(Nc1ccc(S(=O)(=O)NC2=NCCCCC2)cc1)c1ccc(C(F)(F)F)cc1, which Potency is on record?
Answer: inconclusive: 13.1 µM [inhibitor, partial curve]

Question: With CCC(NS(=O)(=O)c1ccc(OC)cc1)C(=O)NCCc1ccccc1 (configuration not stated) as the molecule, how does the Potency read?
Answer: inconclusive: 11.7 µM [inhibitor, single point]

Question: With CCOC(=O)CSCC(=O)Nc1c(C(=O)C2CC2)oc2ccccc12 as the molecule, how does the Potency read?
Answer: active: 5.86 µM

Question: For NS(=O)(=O)c1ccc(CCNC(=O)CSc2nnc3ccccn23)cc1, which Potency is on record?
Answer: inactive

Question: With Cc1cc(NC(=O)CCC(=O)N(Cc2ccco2)C(C(=O)NC2CCCC2)c2ccccc2C)no1 (configuration not stated) as the molecule, how does the Potency read?
Answer: inconclusive: 18.5 µM [inhibitor, partial curve, poor fit]

Question: Which Potency does the source give for O=C(CSc1nnc(CN2CCOCC2)n1-c1ccc(Cl)cc1)Nc1ccc2c(c1)OCO2 here?
Answer: inconclusive: 6.57 µM [inhibitor, partial curve, poor fit]

Question: For CNC(=O)c1c[nH]c2ccc(S(=O)(=O)Nc3ccccc3F)cc2c1=O, which Potency is on record?
Answer: inconclusive: 11.7 µM [inhibitor, partial curve]

Question: With Cc1nn(CCc2n[nH]c(=S)n2-c2cccc(Cl)c2)c(C)c1[N+](=O)[O-] as the molecule, how does the Potency read?
Answer: inactive

Question: For O=C(NC1CCCCC1)c1cccs1, which Potency is on record?
Answer: inactive

Question: For O=C(c1cn(-c2ccccc2)nc1-c1cccnc1)N1CCN(S(=O)(=O)c2cccc(F)c2)CC1, which Potency is on record?
Answer: inconclusive: 0.0738 µM [inhibitor, full curve, poor fit]

Question: Which Potency does the source give for O=C(CCSc1nc(-c2ccco2)cc(C(F)(F)F)n1)NCC1CCCO1 (configuration not stated) here?
Answer: inconclusive: 18.5 µM [inhibitor, single point]

Question: With Cc1ccc(C(O)(C(=O)NNc2ccccn2)c2ccc(C)cc2)cc1 as the molecule, how does the Potency read?
Answer: inconclusive: 14.7 µM [inhibitor, single point]

Question: With COc1cc2c(c(OC)c1OC)-c1c(cc(OC)c(OC)c1OC)C[C@](C)(O)[C@@H](C)C2 as the molecule, how does the Potency read?
Answer: inconclusive: 18.5 µM [inhibitor, single point]

Question: For CC(=O)N(c1c(C)n(C)n(-c2ccccc2)c1=O)C1(C(=O)NC2CCCCC2)CCCCC1, which Potency is on record?
Answer: inconclusive: 10.4 µM [inhibitor, partial curve]

Question: For CCOC(=O)c1cc(-c2ccccc2)n(CCC(=O)N2CCN(c3ccccn3)CC2)c1C, which Potency is on record?
Answer: active: 13.1 µM

Question: Which Potency does the source give for Cc1cc(NC(=O)CSc2nc3c(sc4ccccc43)c(=O)n2CCCN2CCOCC2)n[nH]1 here?
Answer: inconclusive: 1.65 µM [inhibitor, full curve, poor fit]

Question: For Fc1cccc(/C=N/Nc2ncnc3nc[nH]c23)c1, which Potency is on record?
Answer: inconclusive: 18.5 µM [inhibitor, single point]

Question: For COc1ccc(CN(C)C(=O)c2ccc(NS(=O)(=O)c3ccc4[nH]c(=O)[nH]c4c3)cc2)c(OC)c1, which Potency is on record?
Answer: inconclusive: 14.7 µM [inhibitor, single point]

Question: With O=C(/C=C1\C(=O)Nc2ccccc21)/C=C1\C(=O)Nc2ccccc21 as the molecule, how does the Potency read?
Answer: inconclusive: 13.1 µM [inhibitor, single point]

Question: Which Potency does the source give for CNc1snc(C)c1C(=O)OC(C)C(=O)Nc1ccccc1 (configuration not stated) here?
Answer: inconclusive: 10.4 µM [inhibitor, partial curve, poor fit]

Question: For O=C(NC1CC1)C1=C[C@H](c2c[nH]c3ccccc23)C[C@H](OCc2ccc(CO)cc2)O1, which Potency is on record?
Answer: inconclusive: 18.5 µM [inhibitor, single point]

Question: For CC1(C)CC(=O)C2=C(C1)OC(N)=C(C#N)C2c1cn(-c2ccccc2)nc1-c1ccccc1 (configuration not stated), which Potency is on record?
Answer: inconclusive: 18.5 µM [inhibitor, single point]

Question: For NC(=O)CSc1ccc(F)cc1, which Potency is on record?
Answer: inactive

Question: For O=C(Nc1nc(=O)c2ccccc2s1)c1ccccc1, which activity change, negative = inhibition is on record?
Answer: inactive: -0.517% [at 5.75 µM]

Question: For COc1cc(/C=C/C(=O)OCN2C(=O)c3ccccc3C2=O)ccc1OC(F)F, which Potency is on record?
Answer: inactive

Question: For O=C(O)CCn1c(-c2ccccn2)nc2ccccc21, which Potency is on record?
Answer: inconclusive: 18.5 µM [inhibitor, single point]

Question: With COc1ccc(/C=C/C(=O)Nc2ccccc2C(=O)NCC(c2ccc(OC)cc2)N(C)C)cc1 (configuration not stated) as the molecule, how does the Potency read?
Answer: inconclusive: 18.5 µM [inhibitor, single point]

Question: For Cc1ccccc1-n1cnc2cc(NCc3cccs3)ccc21, which Potency is on record?
Answer: inconclusive: 10.4 µM [inhibitor, single point]

Question: Which Potency does the source give for CCn1c(=O)c2sccc2n(CC(=O)NC2CCCCC2)c1=O here?
Answer: inconclusive: 11.7 µM [inhibitor, partial curve]

Question: Which Potency does the source give for COc1ccccc1C(CNC(=O)c1ccc(C)c(S(=O)(=O)N2CCCCC2)c1)N(C)C (configuration not stated) here?
Answer: inconclusive: 10.4 µM [inhibitor, single point]

Question: For CC(C)(C)OC(=O)COc1cc(OCC(=O)OC(C)(C)C)c2c(=O)cc(-c3ccccc3)oc2c1, which Potency is on record?
Answer: inconclusive: 3.29 µM [inhibitor, partial curve]

Question: With CC(C)N1CCN(Cc2nc3c(s2)CCCC3)CC1CCO (configuration not stated) as the molecule, how does the Potency read?
Answer: inconclusive: 18.5 µM [inhibitor, single point]

Question: With Brc1ccc(/C=N/N2CCN(C3c4ccccc4-c4ccccc43)CC2)s1 as the molecule, how does the Potency read?
Answer: inconclusive: 18.5 µM [inhibitor, single point]

Question: With O=C(NCc1ccc(Cl)cc1)C(=O)NCC(c1cccnc1)N1CCN(c2ccc(F)cc2)CC1 (configuration not stated) as the molecule, how does the Potency read?
Answer: inconclusive: 18.5 µM [inhibitor, single point]

Question: Which Potency does the source give for Cc1ccccc1-n1c(SCC(=O)c2cc(C)n(C)c2C)nnc1-c1ccncc1 here?
Answer: inconclusive: 18.5 µM [inhibitor, single point]

Question: For CC(=O)N(C[C@@H](C)C(=O)O)c1c(I)cc(I)c(N)c1I, which Potency is on record?
Answer: inactive

Question: For CCc1ccc(NC(=O)CNC(=O)[C@@H]2Cc3ccccc3CN2C(=O)OC(C)(C)C)cc1, which Potency is on record?
Answer: inconclusive: 18.5 µM [inhibitor, single point]

Question: With CCOC(=O)Nc1ccc(S(=O)(=O)Nc2cc(C)on2)cc1 as the molecule, how does the Potency read?
Answer: inactive

Question: Which Potency does the source give for CC1(C)CC(=O)C(C=NCC2CCCO2)=C(O)C1 (configuration not stated) here?
Answer: inconclusive: 3.7 µM [inhibitor, single point]

Question: Which Potency does the source give for Cc1[nH]c2ccc(F)cc2c1CCN(Cc1ccncc1)C(=S)Nc1ccccc1 here?
Answer: inconclusive: 18.5 µM [inhibitor, single point]

Question: With CCN(CC)C(=O)c1cc(S(=O)(=O)N2CCCCC2)c[nH]1 as the molecule, how does the Potency read?
Answer: inconclusive: 18.5 µM [inhibitor, single point]

Question: With COc1cccc(C(=O)Cn2c(=N)n(C)c3ccccc32)c1 as the molecule, how does the Potency read?
Answer: inactive

Question: Which Potency does the source give for CCOC(=O)C(/C(N)=N/C(=O)Nc1ccccc1)=C(\C)O here?
Answer: active: 9.28 µM

Question: Which Potency does the source give for COc1ccc(CCNC(=O)C2CCC(=O)N(CCc3ccc(OC)cc3)C2)cc1 (configuration not stated) here?
Answer: inactive

Question: With CCC(C)c1ccc(NC(=O)COc2c(F)c(F)c(C(F)(F)F)c(F)c2F)cc1 (configuration not stated) as the molecule, how does the Potency read?
Answer: active: 2.08 µM

Question: For C=CCOc1ccccc1CN(C(=O)CCl)c1ccc2c(c1)OCO2, which Potency is on record?
Answer: active: 11.7 µM
